± gives the standard deviation of the averaged measurements. Differences between knockout arms are mostly noise.
Test system: MDA-MB-231
Experiment: relative cell number vs DMSO control (72 h) (% of DMSO); higher = less growth inhibition (more cells)
Method: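 QMAP-Seq: a pool of 5 breast cancer cell lines (ZR-75-1, SKBR3, HCC-38, MDA-MB-231, BT-20), each carrying 12 doxycycline-inducible Cas9 sgRNA perturbations (11 knockouts plus non-targeting sgNT), was treated with compounds for 72 h at four 10-fold doses (10 nM-10 uM or 1 nM-1 uM range). Barcodes were amplified and sequenced, and cell number was interpolated from 293T spike-in standard curves. The result is expressed as % of the median of DMSO wells. Two biological replicates.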

CN(C)CC[C@H](CSc1ccccc1)Nc1ccc(S(=O)(=O)NC(=O)c2ccc(N3CCN(Cc4ccccc4-c4ccc(Cl)cc4)CC3)cc2)cc1[N+](=O)[O-] [ABT737]
Settings | relative cell number
sgRNA knockout: sgATF3, 10 nM | 67.8 ± 26
sgRNA knockout: sgATF3, 100 nM | 101 ± 2
sgRNA knockout: sgATF3, 1000 nM | 95 ± 31
sgRNA knockout: sgATF3, 10000 nM | 53.1 ± 9.6
sgRNA knockout: sgATF4, 10 nM | 72.4 ± 13
sgRNA knockout: sgATF4, 100 nM | 96.7 ± 48
sgRNA knockout: sgATF4, 1000 nM | 87.4 ± 21
sgRNA knockout: sgATF4, 10000 nM | 49.9 ± 7
sgRNA knockout: sgATF6, 10 nM | 88.8 ± 0.84
sgRNA knockout: sgATF6, 100 nM | 103 ± 30
sgRNA knockout: sgATF6, 1000 nM | 89 ± 16
sgRNA knockout: sgATF6, 10000 nM | 55.1 ± 1.5
sgRNA knockout: sgATG7, 10 nM | 82.2 ± 2.8
sgRNA knockout: sgATG7, 100 nM | 86.2 ± 1.2
sgRNA knockout: sgATG7, 1000 nM | 90.7 ± 7.6
sgRNA knockout: sgATG7, 10000 nM | 55.4 ± 1.7
sgRNA knockout: sgERN1, 10 nM | 111 ± 12
sgRNA knockout: sgERN1, 100 nM | 85.2 ± 24
sgRNA knockout: sgERN1, 1000 nM | 97.1 ± 8.5
sgRNA knockout: sgERN1, 10000 nM | 66.7 ± 1
sgRNA knockout: sgHSF1, 10 nM | 91.2 ± 6.5
sgRNA knockout: sgHSF1, 100 nM | 88.102 ± 0.083
sgRNA knockout: sgHSF1, 1000 nM | 112 ± 2.5
sgRNA knockout: sgHSF1, 10000 nM | 54.5 ± 15
sgRNA knockout: sgHSF2, 10 nM | 101 ± 4.2
sgRNA knockout: sgHSF2, 100 nM | 83 ± 9
sgRNA knockout: sgHSF2, 1000 nM | 89.4 ± 1
sgRNA knockout: sgHSF2, 10000 nM | 69.7 ± 2.8
sgRNA knockout: sgKEAP1, 10 nM | 94.9 ± 11
sgRNA knockout: sgKEAP1, 100 nM | 89 ± 25
sgRNA knockout: sgKEAP1, 1000 nM | 87.39 ± 0.3
sgRNA knockout: sgKEAP1, 10000 nM | 89.9 ± 34
sgRNA knockout: sgNFE2L2, 10 nM | 75.3 ± 9.7
sgRNA knockout: sgNFE2L2, 100 nM | 82.2 ± 12
sgRNA knockout: sgNFE2L2, 1000 nM | 96.9 ± 12
sgRNA knockout: sgNFE2L2, 10000 nM | 58.2 ± 26
sgRNA knockout: sgSLC35F2, 10 nM | 90 ± 20
sgRNA knockout: sgSLC35F2, 100 nM | 85.1 ± 16
sgRNA knockout: sgSLC35F2, 1000 nM | 78.1 ± 16
sgRNA knockout: sgSLC35F2, 10000 nM | 57.5 ± 29
sgRNA knockout: sgXBP1, 10 nM | 87 ± 5.1
sgRNA knockout: sgXBP1, 100 nM | 90.3 ± 15
sgRNA knockout: sgXBP1, 1000 nM | 88.6 ± 1.3
sgRNA knockout: sgXBP1, 10000 nM | 81.5 ± 12

Cc1onc(-c2ccccc2)c1-c1ccc(S(N)(=O)=O)cc1 [Valdecoxib]
Settings | relative cell number
sgRNA knockout: sgATF3, 10 nM | 118 ± 5.9
sgRNA knockout: sgATF3, 100 nM | 89.2 ± 4.5
sgRNA knockout: sgATF3, 1000 nM | 124 ± 8.7
sgRNA knockout: sgATF3, 10000 nM | 97.9 ± 5.6
sgRNA knockout: sgATF4, 10 nM | 102 ± 18
sgRNA knockout: sgATF4, 100 nM | 85.7 ± 6.6
sgRNA knockout: sgATF4, 1000 nM | 87.1 ± 11
sgRNA knockout: sgATF4, 10000 nM | 64.2 ± 2.2
sgRNA knockout: sgATF6, 10 nM | 102 ± 1.3
sgRNA knockout: sgATF6, 100 nM | 97.3 ± 57
sgRNA knockout: sgATF6, 1000 nM | 101 ± 27
sgRNA knockout: sgATF6, 10000 nM | 89.9 ± 26
sgRNA knockout: sgATG7, 10 nM | 99.5 ± 3
sgRNA knockout: sgATG7, 100 nM | 101 ± 3.1
sgRNA knockout: sgATG7, 1000 nM | 104 ± 5.9
sgRNA knockout: sgATG7, 10000 nM | 103 ± 2.3
sgRNA knockout: sgERN1, 10 nM | 75.9 ± 2.4
sgRNA knockout: sgERN1, 100 nM | 108 ± 17
sgRNA knockout: sgERN1, 1000 nM | 111 ± 6
sgRNA knockout: sgERN1, 10000 nM | 99.4 ± 45
sgRNA knockout: sgHSF1, 10 nM | 88.1 ± 5.7
sgRNA knockout: sgHSF1, 100 nM | 93.7 ± 5.6
sgRNA knockout: sgHSF1, 1000 nM | 112 ± 19
sgRNA knockout: sgHSF1, 10000 nM | 108 ± 8
sgRNA knockout: sgHSF2, 10 nM | 132 ± 33
sgRNA knockout: sgHSF2, 100 nM | 95.4 ± 11
sgRNA knockout: sgHSF2, 1000 nM | 103 ± 2.8
sgRNA knockout: sgHSF2, 10000 nM | 81.9 ± 5.6
sgRNA knockout: sgKEAP1, 10 nM | 109 ± 13
sgRNA knockout: sgKEAP1, 100 nM | 98.6 ± 27
sgRNA knockout: sgKEAP1, 1000 nM | 97.56 ± 0.26
sgRNA knockout: sgKEAP1, 10000 nM | 99.2 ± 11
sgRNA knockout: sgNFE2L2, 10 nM | 103 ± 24
sgRNA knockout: sgNFE2L2, 100 nM | 106 ± 19
sgRNA knockout: sgNFE2L2, 1000 nM | 99 ± 30
sgRNA knockout: sgNFE2L2, 10000 nM | 96.3 ± 17
sgRNA knockout: sgSLC35F2, 10 nM | 79.4 ± 25
sgRNA knockout: sgSLC35F2, 100 nM | 93.6 ± 8.5
sgRNA knockout: sgSLC35F2, 1000 nM | 103 ± 21
sgRNA knockout: sgSLC35F2, 10000 nM | 97.21 ± 0.14
sgRNA knockout: sgXBP1, 10 nM | 104 ± 63
sgRNA knockout: sgXBP1, 100 nM | 96.8 ± 1.1
sgRNA knockout: sgXBP1, 1000 nM | 96 ± 23
sgRNA knockout: sgXBP1, 10000 nM | 92 ± 14

CN1C(=O)C(Cc2c[nH]c3ccccc23)NC1=S (configuration not stated) [Necrostatin1]
Settings | relative cell number
sgRNA knockout: sgATF3, 10 nM | 109 ± 2.9
sgRNA knockout: sgATF3, 100 nM | 92.7 ± 11
sgRNA knockout: sgATF3, 1000 nM | 94.7 ± 6.2
sgRNA knockout: sgATF3, 10000 nM | 85 ± 21
sgRNA knockout: sgATF4, 10 nM | 71.4 ± 28
sgRNA knockout: sgATF4, 100 nM | 70.9 ± 36
sgRNA knockout: sgATF4, 1000 nM | 75.7 ± 13
sgRNA knockout: sgATF4, 10000 nM | 108 ± 27
sgRNA knockout: sgATF6, 10 nM | 68 ± 28
sgRNA knockout: sgATF6, 100 nM | 66.3 ± 12
sgRNA knockout: sgATF6, 1000 nM | 62.8 ± 0.43
sgRNA knockout: sgATF6, 10000 nM | 89.2 ± 21
sgRNA knockout: sgATG7, 10 nM | 90.1 ± 4.6
sgRNA knockout: sgATG7, 100 nM | 87.2 ± 10
sgRNA knockout: sgATG7, 1000 nM | 98.1 ± 53
sgRNA knockout: sgATG7, 10000 nM | 79.2 ± 5.9
sgRNA knockout: sgERN1, 10 nM | 112 ± 8.4
sgRNA knockout: sgERN1, 100 nM | 94 ± 25
sgRNA knockout: sgERN1, 1000 nM | 94.5 ± 5
sgRNA knockout: sgERN1, 10000 nM | 80 ± 33
sgRNA knockout: sgHSF1, 10 nM | 92 ± 9.3
sgRNA knockout: sgHSF1, 100 nM | 72.6 ± 11
sgRNA knockout: sgHSF1, 1000 nM | 82.1 ± 18
sgRNA knockout: sgHSF1, 10000 nM | 82.7 ± 24
sgRNA knockout: sgHSF2, 10 nM | 97.2 ± 14
sgRNA knockout: sgHSF2, 100 nM | 94.9 ± 12
sgRNA knockout: sgHSF2, 1000 nM | 81.6 ± 9.9
sgRNA knockout: sgHSF2, 10000 nM | 74.1 ± 23
sgRNA knockout: sgKEAP1, 10 nM | 97.1 ± 23
sgRNA knockout: sgKEAP1, 100 nM | 78.85 ± 0.39
sgRNA knockout: sgKEAP1, 1000 nM | 83.1 ± 18
sgRNA knockout: sgKEAP1, 10000 nM | 73.1 ± 13
sgRNA knockout: sgNFE2L2, 10 nM | 113 ± 29
sgRNA knockout: sgNFE2L2, 100 nM | 92.7 ± 24
sgRNA knockout: sgNFE2L2, 1000 nM | 71.4 ± 22
sgRNA knockout: sgNFE2L2, 10000 nM | 90.2 ± 14
sgRNA knockout: sgSLC35F2, 10 nM | 72.9 ± 3.8
sgRNA knockout: sgSLC35F2, 100 nM | 82.2 ± 25
sgRNA knockout: sgSLC35F2, 1000 nM | 88.4 ± 10
sgRNA knockout: sgSLC35F2, 10000 nM | 78.6 ± 16
sgRNA knockout: sgXBP1, 10 nM | 83.7 ± 24
sgRNA knockout: sgXBP1, 100 nM | 73.2 ± 33
sgRNA knockout: sgXBP1, 1000 nM | 77.2 ± 21
sgRNA knockout: sgXBP1, 10000 nM | 68.7 ± 2.7

Source: the supplement of paper PMC7661543
